Values quoted from earlier work, collected in US9783586B2, “Inhibitors of the linear ubiquitin chain assembly complex (LUBAC) and related methods” (The United States of America, as represented by the …, priority 2013, dated 2017).
At least one structure is not confirmed: it was looked up by name or label, or the drawing left a doubt.

System: NF-κB
Settings: positive control, reported in the literature; cited from earlier work

SMILES: C=CC(=O)N1CCC[C@@H](n2nc(-c3ccc(Oc4ccccc4)cc3)c3c(N)ncnc32)C1 [Ibrutinib, ibrutinib]
- NF-κB activity in ABC cells: reduce NF-κB activity
